Results from US20120101099A1, “HISTONE DEACETYLASE INHIBITORS” (ANTHEM BIOSCIENCES PRIVATE LIMITED, priority 2009, published 2012).
At least one read-out could not be matched to a standard name with certainty.

Experiment: Oral bioavailability and pharmacokinetics studies
Type: in vivo, male Balb/c mice
Conditions: compared with SAHA
Protocol: The studies were performed to determine the oral bioavailability and pharmacokinetics of test compounds in male Balb/c mice. Study was performed after obtaining the Institutional Animal Ethics Committee (IAEC) permission. Mice aged 5 to 6 weeks weighing around 25 to 30 g were used for this study. The animals were fasted overnight with free access to water. Animals were administered test compounds by oral route at a 50 mg/kg body weight (formulation: 0.5% methylcellulose in water and 0.1% tween 80. Dose volume 10 ml/kg b.w.) or intravenous route at a dose 10 mg/kg b.w. […] (formulation: 0.9% saline. Dose volume 10 ml/kg b.w.) Blood samples were collected at various time points during the next 24 hours post dose. The blood samples were centrifuged at 3000 g for 5 minutes at 4° C. and the corresponding plasma samples were collected in clean pre-labeled tubes. Then, each sample was subjected to a suitable extraction method and analysed by LC-MS/MS (API 3200 LC-MS/MS system). Data was analyzed using WinNonlin version 5.2 (Pharsight).

For `CCN(CC)CCc1ccc(-c2cn(Cc3ccc(C(=O)NO)cc3)nn2)cc1` [Example 11, 4-{4-[4-(2-Diethylamino-ethyl)-phenyl]-[1,2,3]triazol-1-ylmethyl}-N-hydroxy-benzamide], the “times higher Cmax” value was 5 times.
